Results are given in words; binding and its absence hold for the method and conditions named. In cells and extracts the contact can be indirect. Some results given as binding are weak or reduced against the parent protein; the word gives no strength.
Target: Argonaute 2 (AGO2), untagged, endogenous in A549 WT and UnTagged clones (human (endogenous in A549)) (UniProt Q9UKV8)
Test: co-IP; endogenous co-immunoprecipitation from A549 lysates (WT, UT C1, UT C2, AGO2^HALO C5, AGO2^HALO C10); NP-40 buffer (150 mM NaCl, 50 mM Tris pH 8.0, 0.7% NP-40, 5% glycerol); 1 ug mouse IgA anti-AGO2 or IgA isotype control, 3 h at room temperature, Protein L beads; washed in PBS with 0.1% …; glycine pH 2.5 elution; Western blot for Dicer and TNRC6A

By UniProt entry, the sequences of proteins in these tests, tags left out.
UniProt Q9UKV8: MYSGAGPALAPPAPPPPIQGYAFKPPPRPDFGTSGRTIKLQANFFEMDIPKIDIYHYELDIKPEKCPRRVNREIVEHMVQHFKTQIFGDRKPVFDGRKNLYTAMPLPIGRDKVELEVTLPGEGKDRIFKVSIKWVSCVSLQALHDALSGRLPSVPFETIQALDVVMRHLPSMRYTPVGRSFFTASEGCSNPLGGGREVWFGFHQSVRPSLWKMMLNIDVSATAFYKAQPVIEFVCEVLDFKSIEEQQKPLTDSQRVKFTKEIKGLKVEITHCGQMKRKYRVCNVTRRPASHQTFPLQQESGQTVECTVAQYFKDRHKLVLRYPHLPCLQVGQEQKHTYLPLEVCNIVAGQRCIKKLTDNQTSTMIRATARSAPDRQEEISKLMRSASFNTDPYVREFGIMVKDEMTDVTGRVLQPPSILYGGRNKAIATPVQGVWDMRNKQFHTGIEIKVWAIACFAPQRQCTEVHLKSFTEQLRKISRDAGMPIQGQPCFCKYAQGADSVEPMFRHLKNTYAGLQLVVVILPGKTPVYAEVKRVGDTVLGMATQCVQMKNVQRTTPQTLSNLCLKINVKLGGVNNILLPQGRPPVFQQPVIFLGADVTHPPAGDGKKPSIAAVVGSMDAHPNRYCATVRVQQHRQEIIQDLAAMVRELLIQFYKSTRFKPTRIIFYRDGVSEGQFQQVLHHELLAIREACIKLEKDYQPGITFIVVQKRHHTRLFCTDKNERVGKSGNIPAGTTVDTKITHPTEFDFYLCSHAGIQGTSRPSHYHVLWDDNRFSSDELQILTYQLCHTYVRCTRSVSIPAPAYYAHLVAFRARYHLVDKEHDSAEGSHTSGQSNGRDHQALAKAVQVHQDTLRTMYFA
UniProt Q9UPY3: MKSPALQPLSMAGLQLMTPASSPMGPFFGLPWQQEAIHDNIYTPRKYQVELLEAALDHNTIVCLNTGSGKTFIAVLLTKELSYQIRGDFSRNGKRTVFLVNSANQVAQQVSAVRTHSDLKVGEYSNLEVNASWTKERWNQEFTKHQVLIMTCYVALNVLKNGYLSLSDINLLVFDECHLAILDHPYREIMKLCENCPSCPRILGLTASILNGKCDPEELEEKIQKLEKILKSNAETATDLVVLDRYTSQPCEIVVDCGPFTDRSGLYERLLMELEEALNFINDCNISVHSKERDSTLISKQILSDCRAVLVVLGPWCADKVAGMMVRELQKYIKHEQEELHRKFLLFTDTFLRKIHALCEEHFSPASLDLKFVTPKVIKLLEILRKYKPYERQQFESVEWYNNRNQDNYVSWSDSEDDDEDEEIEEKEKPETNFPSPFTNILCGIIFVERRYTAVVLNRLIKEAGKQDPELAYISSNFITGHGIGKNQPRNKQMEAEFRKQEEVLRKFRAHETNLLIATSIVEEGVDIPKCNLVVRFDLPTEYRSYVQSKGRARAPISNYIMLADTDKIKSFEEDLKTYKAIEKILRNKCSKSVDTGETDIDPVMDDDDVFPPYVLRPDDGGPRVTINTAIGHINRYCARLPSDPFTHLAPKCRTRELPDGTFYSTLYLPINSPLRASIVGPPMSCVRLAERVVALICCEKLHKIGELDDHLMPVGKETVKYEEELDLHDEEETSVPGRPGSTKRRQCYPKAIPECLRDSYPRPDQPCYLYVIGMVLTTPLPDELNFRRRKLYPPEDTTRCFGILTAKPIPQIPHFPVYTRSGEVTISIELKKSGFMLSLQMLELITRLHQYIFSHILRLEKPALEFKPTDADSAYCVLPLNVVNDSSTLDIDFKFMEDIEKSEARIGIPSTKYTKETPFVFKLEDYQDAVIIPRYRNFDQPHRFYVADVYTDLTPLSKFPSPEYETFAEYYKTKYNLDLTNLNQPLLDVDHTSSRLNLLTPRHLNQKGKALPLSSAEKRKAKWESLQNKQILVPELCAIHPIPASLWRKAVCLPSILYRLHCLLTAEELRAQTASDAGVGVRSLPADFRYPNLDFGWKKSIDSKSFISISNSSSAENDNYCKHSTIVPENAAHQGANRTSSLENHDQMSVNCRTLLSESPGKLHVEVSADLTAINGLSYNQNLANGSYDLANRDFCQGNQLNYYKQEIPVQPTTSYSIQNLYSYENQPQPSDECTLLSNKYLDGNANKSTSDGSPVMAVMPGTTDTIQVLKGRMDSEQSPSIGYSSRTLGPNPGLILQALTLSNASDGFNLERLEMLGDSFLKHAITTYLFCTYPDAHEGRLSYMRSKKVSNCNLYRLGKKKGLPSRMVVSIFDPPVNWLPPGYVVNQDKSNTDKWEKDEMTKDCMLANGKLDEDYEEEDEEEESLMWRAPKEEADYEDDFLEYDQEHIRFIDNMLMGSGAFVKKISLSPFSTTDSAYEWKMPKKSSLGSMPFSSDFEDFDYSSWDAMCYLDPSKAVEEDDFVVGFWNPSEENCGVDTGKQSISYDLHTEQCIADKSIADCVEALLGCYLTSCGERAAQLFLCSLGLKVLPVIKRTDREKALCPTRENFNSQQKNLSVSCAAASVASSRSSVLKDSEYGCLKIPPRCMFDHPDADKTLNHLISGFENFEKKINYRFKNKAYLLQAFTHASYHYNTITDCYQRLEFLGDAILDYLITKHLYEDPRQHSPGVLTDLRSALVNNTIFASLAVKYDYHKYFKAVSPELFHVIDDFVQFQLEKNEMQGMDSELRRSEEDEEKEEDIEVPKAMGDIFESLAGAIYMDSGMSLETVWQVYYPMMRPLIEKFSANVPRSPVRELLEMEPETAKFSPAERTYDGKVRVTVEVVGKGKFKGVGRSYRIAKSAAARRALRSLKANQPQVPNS
UniProt Q8NDV7: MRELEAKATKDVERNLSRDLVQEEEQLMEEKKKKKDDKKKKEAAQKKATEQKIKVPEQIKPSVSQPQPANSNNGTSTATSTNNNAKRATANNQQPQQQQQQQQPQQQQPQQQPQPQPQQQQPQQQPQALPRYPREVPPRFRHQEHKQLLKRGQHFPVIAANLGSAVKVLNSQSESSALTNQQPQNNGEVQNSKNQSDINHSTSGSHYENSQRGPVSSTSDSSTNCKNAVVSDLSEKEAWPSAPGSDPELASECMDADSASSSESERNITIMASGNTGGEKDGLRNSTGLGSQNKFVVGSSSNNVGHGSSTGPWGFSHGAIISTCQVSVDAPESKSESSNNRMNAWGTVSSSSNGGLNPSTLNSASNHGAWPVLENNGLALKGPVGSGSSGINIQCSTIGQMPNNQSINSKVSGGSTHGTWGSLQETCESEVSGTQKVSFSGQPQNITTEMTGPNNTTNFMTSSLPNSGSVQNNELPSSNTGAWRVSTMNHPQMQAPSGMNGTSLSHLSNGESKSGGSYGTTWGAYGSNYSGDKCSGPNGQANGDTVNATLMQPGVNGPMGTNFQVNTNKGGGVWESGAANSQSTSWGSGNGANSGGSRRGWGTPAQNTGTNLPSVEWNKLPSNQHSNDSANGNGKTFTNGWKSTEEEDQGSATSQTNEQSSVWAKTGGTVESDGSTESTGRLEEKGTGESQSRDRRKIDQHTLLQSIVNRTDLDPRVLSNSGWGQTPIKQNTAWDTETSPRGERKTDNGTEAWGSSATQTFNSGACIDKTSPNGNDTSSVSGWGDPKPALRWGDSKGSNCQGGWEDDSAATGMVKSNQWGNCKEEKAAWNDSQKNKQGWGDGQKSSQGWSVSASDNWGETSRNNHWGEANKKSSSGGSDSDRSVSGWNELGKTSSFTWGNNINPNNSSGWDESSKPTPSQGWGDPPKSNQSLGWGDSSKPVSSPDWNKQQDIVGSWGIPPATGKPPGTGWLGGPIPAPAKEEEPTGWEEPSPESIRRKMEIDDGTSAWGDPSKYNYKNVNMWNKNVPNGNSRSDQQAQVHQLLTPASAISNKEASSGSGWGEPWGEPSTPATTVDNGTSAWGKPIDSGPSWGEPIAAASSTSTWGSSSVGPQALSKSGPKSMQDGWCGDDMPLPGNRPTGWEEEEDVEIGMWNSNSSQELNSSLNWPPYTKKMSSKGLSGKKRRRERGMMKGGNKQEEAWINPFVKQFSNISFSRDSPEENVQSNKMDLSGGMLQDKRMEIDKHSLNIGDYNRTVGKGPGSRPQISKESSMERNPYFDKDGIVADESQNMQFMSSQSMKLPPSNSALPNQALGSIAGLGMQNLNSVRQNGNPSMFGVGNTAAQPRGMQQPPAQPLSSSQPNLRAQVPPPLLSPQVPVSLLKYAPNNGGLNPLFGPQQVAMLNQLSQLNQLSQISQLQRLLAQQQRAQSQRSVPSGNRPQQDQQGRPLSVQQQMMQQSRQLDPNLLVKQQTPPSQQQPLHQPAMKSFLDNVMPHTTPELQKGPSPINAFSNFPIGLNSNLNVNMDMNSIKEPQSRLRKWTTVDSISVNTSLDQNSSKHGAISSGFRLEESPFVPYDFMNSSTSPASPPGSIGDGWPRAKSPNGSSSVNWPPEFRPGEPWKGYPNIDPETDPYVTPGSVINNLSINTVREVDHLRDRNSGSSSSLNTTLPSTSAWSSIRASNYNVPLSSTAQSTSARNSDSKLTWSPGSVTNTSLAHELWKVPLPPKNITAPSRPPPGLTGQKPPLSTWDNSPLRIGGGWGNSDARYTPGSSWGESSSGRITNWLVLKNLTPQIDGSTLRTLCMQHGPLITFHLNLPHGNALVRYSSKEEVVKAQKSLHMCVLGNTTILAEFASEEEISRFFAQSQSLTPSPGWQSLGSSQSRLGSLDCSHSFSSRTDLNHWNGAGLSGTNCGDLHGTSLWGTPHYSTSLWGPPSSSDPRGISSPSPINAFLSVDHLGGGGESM

binding	Substance
binds	Dicer (from UniProt Q9UPY3 1-1922) (enzyme)
binds	TNRC6A (from UniProt Q8NDV7 1-1962)

Reference: publication PMC12296108
